{
  "sequences": {"note": "By UniProt entry, the sequences of proteins in these tests, tags left out.", "UniProt P01106": "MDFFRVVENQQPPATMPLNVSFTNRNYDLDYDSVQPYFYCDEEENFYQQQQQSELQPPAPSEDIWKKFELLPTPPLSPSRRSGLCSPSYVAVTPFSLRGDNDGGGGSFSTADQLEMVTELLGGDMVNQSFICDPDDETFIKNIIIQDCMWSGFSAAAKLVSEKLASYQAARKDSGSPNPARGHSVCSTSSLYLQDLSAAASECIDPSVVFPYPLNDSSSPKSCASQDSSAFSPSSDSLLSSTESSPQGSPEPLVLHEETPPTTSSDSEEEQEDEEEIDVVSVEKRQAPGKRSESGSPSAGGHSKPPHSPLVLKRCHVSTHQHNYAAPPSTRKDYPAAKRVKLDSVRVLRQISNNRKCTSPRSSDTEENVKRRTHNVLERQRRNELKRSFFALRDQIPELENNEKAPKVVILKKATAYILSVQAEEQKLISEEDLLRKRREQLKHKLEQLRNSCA", "UniProt O14733": "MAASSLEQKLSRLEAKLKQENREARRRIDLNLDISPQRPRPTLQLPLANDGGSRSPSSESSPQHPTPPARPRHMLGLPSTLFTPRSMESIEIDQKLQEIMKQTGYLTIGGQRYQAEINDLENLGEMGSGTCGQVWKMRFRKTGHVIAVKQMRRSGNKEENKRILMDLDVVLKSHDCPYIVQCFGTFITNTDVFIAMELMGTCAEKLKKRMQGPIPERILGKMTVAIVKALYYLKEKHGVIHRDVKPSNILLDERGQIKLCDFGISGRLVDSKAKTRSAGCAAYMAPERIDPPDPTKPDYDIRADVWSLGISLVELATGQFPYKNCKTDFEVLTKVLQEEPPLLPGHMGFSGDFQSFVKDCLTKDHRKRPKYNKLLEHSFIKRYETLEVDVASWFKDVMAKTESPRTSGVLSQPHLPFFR"},
  "source": "paper PMC8813925",
  "key": {"[1]": {"molecular_target": "c-Myc expressed from the transfected MYC plasmid (UniProt P01106)", "test": "proximity ligation; MKK7-c-Myc complex in RIPK2-KO HEK293T cells transiently transfected with MYC and RIPK2m4 or vector control"}, "[2]": {"molecular_target": "c-Myc, endogenous (human (endogenous in PC3)) (UniProt P01106)", "test": "proximity ligation; endogenous MKK7 and c-Myc in PC3 cells"}},
  "note": "These are yes or no findings as the source states them, for the method shown. In cells and extracts the contact can be indirect. Some entries that bind do so weakly or less than the wild type.",
  "data": [
    {"substance": "mitogen-activated protein kinase kinase 7 (MKK7), endogenous (from UniProt O14733 1-419)", "values": [
      {"measurement": "binding", "setting": "[1]", "result": "binds"},
      {"measurement": "binding", "setting": "[2]", "result": "binds"}
    ]}
  ]
}
